No constants are given. Whether binding was seen depends on the method and setting. Some binding calls cover weakened binding; strength is not graded here. Where a sequence is shown, tags or fusion partners need not be part of it.
Biological target: human LILRB1 expressed on stably transduced CHO cells (human) (UniProt Q8NHL6)
Assay: flow cytometry, same method as FIG. 1B (CHO cells expressing human LILRB1)

Chains of the proteins cited; added tags and fusions are not shown. Residues count along the entry.
UniProt Q8NHL6, residues 24-650: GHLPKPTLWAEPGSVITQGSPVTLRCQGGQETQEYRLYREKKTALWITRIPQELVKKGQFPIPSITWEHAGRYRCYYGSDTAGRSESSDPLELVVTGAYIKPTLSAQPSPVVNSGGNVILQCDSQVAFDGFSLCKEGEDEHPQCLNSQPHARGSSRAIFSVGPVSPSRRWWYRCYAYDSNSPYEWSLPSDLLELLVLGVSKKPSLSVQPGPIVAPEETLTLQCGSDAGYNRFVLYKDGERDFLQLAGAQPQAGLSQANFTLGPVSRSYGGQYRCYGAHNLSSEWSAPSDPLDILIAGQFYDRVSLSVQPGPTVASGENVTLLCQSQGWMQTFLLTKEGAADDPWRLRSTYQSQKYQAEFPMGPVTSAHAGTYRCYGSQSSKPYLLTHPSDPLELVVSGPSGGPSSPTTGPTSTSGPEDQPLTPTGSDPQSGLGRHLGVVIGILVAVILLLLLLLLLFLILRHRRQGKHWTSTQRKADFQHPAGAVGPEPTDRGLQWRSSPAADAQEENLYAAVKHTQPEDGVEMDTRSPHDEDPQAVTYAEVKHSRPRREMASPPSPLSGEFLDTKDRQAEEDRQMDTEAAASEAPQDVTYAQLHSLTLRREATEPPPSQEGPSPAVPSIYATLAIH

B1: BF9 humanized antagonist antibody of Family AB2 (antibody, V domains shown)
VH: QVQLVESGGGLVKPGGSLRLSCAASGFTFDSYGMHWIRQAPGKGLEWVAYISSGSSTSYYADTVKGRFTISRDDAKNSLYLQMNSLRAEDTAVYYCARPGSNWDVYYAMDYWGQGTLVTVSS
VL: DIVLTQSPDSLAVSLGERATINCRASQSVSTSSYSYMHWYQQKPGQPPKLLIKNASNLESGVPDRFSGSGSGTDFTLTISSLQAEDVAVYYCQHSWEIPFTFGPGTKVDIK
  binding: binds
